These are yes or no findings as the source states them, for the method shown. Some binding calls cover weakened binding; strength is not graded here.
Experiments:
[1] = biological target: T1, human DR3 with the death domain deleted (ΔM339-P417 of SEQ ID NO:1), expressed on CHOK1SV cells (human) (UniProt Q93038); assay: flow cytometry, mean fluorescence on DR3 expressing cells, 2 µg/ml Ab
T1 sequence: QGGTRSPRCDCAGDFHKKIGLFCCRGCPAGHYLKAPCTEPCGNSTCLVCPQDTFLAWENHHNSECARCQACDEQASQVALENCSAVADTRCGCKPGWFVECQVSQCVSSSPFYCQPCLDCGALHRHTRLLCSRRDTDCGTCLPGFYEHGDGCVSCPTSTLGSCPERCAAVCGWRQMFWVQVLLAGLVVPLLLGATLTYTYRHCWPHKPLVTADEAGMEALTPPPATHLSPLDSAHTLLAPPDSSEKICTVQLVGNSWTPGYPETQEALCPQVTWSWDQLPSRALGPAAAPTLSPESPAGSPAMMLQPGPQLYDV

[2] = biological target: T1, human DR3 with the death domain deleted (ΔM339-P417 of SEQ ID NO:1), expressed on CHOK1SV cells (human); assay: flow cytometry, inhibition of TL1A binding to DR3 expressing cells, 2 µg/ml Ab; blocked ligand TL1A-flag tag
[3] = biological target: T1, human DR3 with the death domain deleted (ΔM339-P417 of SEQ ID NO:1), expressed on CHOK1SV cells (human); assay: flow cytometry (FACSArray), inhibition of hTL1A binding to membrane bound DR3, titration 0.01 to 25 µg/ml; blocked ligand hTL1A

B1: 0072 (murine mAb purified from hybridoma 27F44A2) (antibody, mouse IgG1, V domains shown)
VH: EVKLVESGGGLVKPGGSLKLSCSASGFAFSNYDMSWVRQTPEKRLEWVAAFSSDGYTFYPDSLKGRFTISRDNARNTLYLQMSSLGSEDTALYCCARHADYANYPVMDYWGQGTSVTVSS
VL: DIVLAQSPASLLVSLGQRATISCRASKSVSTSGYSYMHWYQQKPGQPPKLLIYLASNLESGVPARFSGSGSGTDFTLNIHPVEEEDAATYYCQHSRELPLTFGAGTMLELKR
binding [1]: binds
binding [2]: binds
binding [3]: binds

B2: 0073 (murine mAb purified from hybridoma 28F26A3) (antibody, V domains shown)
VH: EVKVVESGGGLVKPGGSLKLSCAASGFVFSSYDMSWVRQIPEKRLEWVAAISSGDYYTYYPDSVKGRFTISRDDARNTLYLQMSSLRSEDTALYYCARHRGGNYPQYAMDYWGQGTSVTVSS
VL: DILLTQSPASFAVSLGQRATISCRASKSVSTSGYNYIHWYQQKPGQPPKLLIYLTSNLESGVPARFSGSGSGTDFTLNIHPVEEEDAATYYCQHSRELPFTFGSGTKLEIKR
binding [1]: binds
binding [2]: binds
binding [3]: binds

B3: 0087 (Fab from papain cleavage of mAb 0072) (Fab, V domains shown)
VH: EVKLVESGGGLVKPGGSLKLSCSASGFAFSNYDMSWVRQTPEKRLEWVAAFSSDGYTFYPDSLKGRFTISRDNARNTLYLQMSSLGSEDTALYCCARHADYANYPVMDYWGQGTSVTVSS
VL: DIVLAQSPASLLVSLGQRATISCRASKSVSTSGYSYMHWYQQKPGQPPKLLIYLASNLESGVPARFSGSGSGTDFTLNIHPVEEEDAATYYCQHSRELPLTFGAGTMLELKR
binding [3]: binds

B4: 0088 (Fab from papain cleavage of mAb 0073) (Fab, V domains shown)
VH: EVKVVESGGGLVKPGGSLKLSCAASGFVFSSYDMSWVRQIPEKRLEWVAAISSGDYYTYYPDSVKGRFTISRDDARNTLYLQMSSLRSEDTALYYCARHRGGNYPQYAMDYWGQGTSVTVSS
VL: DILLTQSPASFAVSLGQRATISCRASKSVSTSGYNYIHWYQQKPGQPPKLLIYLTSNLESGVPARFSGSGSGTDFTLNIHPVEEEDAATYYCQHSRELPFTFGSGTKLEIKR
binding [3]: binds

B5: 0070 (murine mAb purified from hybridoma 27F16A1) (antibody, V domains shown)
VH: EVQLVESGGDFVKPGGSLKLSCAASGFTFNNYGMSWVRQTPDKRLEWVAAISSGVTYTYYPDTVKGRFTISRDNAKNTLYLHMSSLKSEDTAMYYCGRHDDYGNHFDYWGQGTTLTVSS
VL: DIVMTQSPSSLAMSLGQRVTMNCKSSQSLLNSHNQKNYLAWYQQKPGQSPKLLVYFASSRESGVPDRFIGSGSGTDFTLTISSVQAEDLADYFCQQHYSTPFTFGSGTKLEIKR
binding [1]: binds
binding [2]: binds

Source: patent publication US20170305994A1
